SMILES strings stand for the structures. The list is a part of this screen's results and no random one: it gathers tests that were run many times, whatever their T/C, doses with no T/C, and many T/C values between a quarter and a half above the control. Other doses and runs of a compound stand elsewhere. T/C: endpoint of the treated group in % of that of the vehicle group. Some entries give survivors of the animals treated and no T/C: the source holds a T/C of zero for them, seemingly a mark for toxic or unscored doses. Some survivor counts are full or nearly so, which does not show that the dose was tolerated: survival well below the control is almost never listed, so the zero probably covers shortened survival too. Counts of survivors are from the toxicity check (mostly the fifth day) where no day follows; animals may have died later. Schedules are NCI's codes, taken here to give the interval after Q, in days (D) or hours (H), and the number of doses after X. Some schedule codes hold Z or #, which are not explained here. Some entries were tested several times; the results are listed from low to high. For survival time, this PubChem deposit counts one and a half times the control or more as active, and values a quarter to a half above the control carry no call in these data; other NCI protocols may use other cut-offs.

In the assay the test system is L1210 leukemia ip in BDF1 mice, survival T/C. In words: NCI In Vivo Anticancer Drug Screen. Data for tumor model L1210 Leukemia (intraperitoneal) in B6D2F1 (BDF1) mice. The conditions noted are these: T/C endpoint: mean survival time, higher T/C = longer survival.
[1] abbreviates: dose: 50.0 mg/kg/injection, schedule: Q01DX009 (ip), vehicle: Klucel (hydroxypropylcellulose) (HPC).
Where [2] appears, read: dose: 100.0 mg/kg/injection, schedule: Q01DX009 (ip), vehicle: Klucel (hydroxypropylcellulose) (HPC).
[3] abbreviates: dose: 400.0 mg/kg/injection, schedule: Q04DX003 (ip), vehicle: Klucel (hydroxypropylcellulose) (HPC).
Where [4] appears, read: dose: 100.0 mg/kg/injection, schedule: Q04DX002 (ip), vehicle: saline with Tween-80.
Setting [5] is: dose: 200.0 mg/kg/injection, schedule: Q04DX002 (ip), vehicle: saline with Tween-80.
Setting [6] is: dose: 400.0 mg/kg/injection, schedule: Q04DX002 (ip), vehicle: saline with Tween-80.
Where [7] appears, read: dose: 400.0 mg/kg/injection, schedule: Q01DX009 (ip), vehicle: saline.
Setting [8] is: dose: 100.0 mg/kg/injection, schedule: Q01DX009 (ip), vehicle: saline.
Setting [9] is: dose: 100.0 mg/kg/injection, schedule: Q04DX003 (ip), vehicle: saline with Tween-80.
[10] abbreviates: dose: 200.0 mg/kg/injection, schedule: Q04DX003 (ip), vehicle: saline with Tween-80.

Regarding `O=C(CCN1CC1)OC1CCCCCC1`, the survivor count is, setting by setting: under setting [1], 6 of 6; under setting [2], 3 of 6; (dose: 200.0 mg/kg/injection, schedule: Q01DX009 (ip), vehicle: Klucel (hydroxypropylcellulose) (HPC)) 0 of 6; under setting [3], 4 of 6.

Take `O/N=C/C=N/O.O/N=C/C=N/O.[Pd]`: the survivor count by setting is: under setting [4], 0 of 3; under setting [5], 0 of 3; under setting [6], 0 of 3.

For `O=C(N/N=C/C1CCCCC1)C(=O)N/N=C/C1CCCCC1`, the survivor count (dose: 25.0 mg/kg/injection, schedule: Q01DX009 (ip), vehicle: Klucel (hydroxypropylcellulose) (HPC)) is given as 6 of 6 and the survivor count under setting [1] was 6 of 6. Further, the T/C is 90 and 101 % of control under setting [1]; 88, 90, 95, 96 % of control under setting [2].

Turning to `COc1ccc(OC)c2c1C(=O)CC2C` (stereo unspecified), the survivor count under setting [7] is listed as 3 of 6.

For the compound `CCC(C)C1NC(=O)C(NC(=O)c2c3nc4c(C(=O)NC5C(=O)NC(C(C)CC)C(=O)N6CCCC6C(=O)N(C)CC(=O)N(C)C(C(C)C)C(=O)OC5C)cc([N+](=O)[O-])c(C)c4oc-3c(C)c(=O)c2N)C(C)OC(=O)C(C(C)C)N(C)C(=O)CN(C)C(=O)C2CCCN2C1=O` (stereo unspecified), the T/C reads like this: (dose: 150.0 micrograms/kg/injection, schedule: Q01DX009 (ip), vehicle: saline + alcohol) 129 % of control; (dose: 300.0 micrograms/kg/injection, schedule: Q01DX009 (ip), vehicle: saline + alcohol) 127 % of control; (dose: 400.0 micrograms/kg/injection, schedule: Q01DX009 (ip), vehicle: saline + alcohol) 134 % of control; (dose: 800.0 micrograms/kg/injection, schedule: Q04DX003 (ip), vehicle: saline + alcohol) 130 % of control; (dose: 1200.0 micrograms/kg/injection, schedule: Q04DX003 (ip), vehicle: saline + alcohol) 137 % of control; (dose: 1600.0 micrograms/kg/injection, schedule: Q04DX003 (ip), vehicle: saline + alcohol) 134 % of control.

Turning to `Nc1nnnn1N(Cc1ccccc1)Cc1ccccc1`, the survivor count under setting [3] was 3 of 6.

As for `CCc1ccc(C(=O)NN)cc1`, under setting [8], the T/C is 131 % of control. In addition, the survivor count is, setting by setting: under setting [8], 1 of 6; (dose: 200.0 mg/kg/injection, schedule: Q01DX009 (ip), vehicle: saline) 1 of 6; under setting [7], 1 of 6.

On to `Nc1nc(SSc2nc(N)nc3c2ncn3C2CC(O)C(CO)O2)c2ncn(C3CC(O)C(CO)O3)c2n1` (stereo unspecified), for which the T/C (dose: 0.25 mg/kg/injection, schedule: Q01DX009 (ip), vehicle: saline) was 132 % of control; the T/C (dose: 0.5 mg/kg/injection, schedule: Q01DX009 (ip), vehicle: saline) was 141 % of control; the T/C (dose: 150.0 mg/kg/injection, schedule: Q01DX001 (ip), vehicle: saline) was 132 % of control; the T/C (dose: 178.0 mg/kg/injection, schedule: Q01DX001 (ip), vehicle: saline) was 138 and 146 % of control; the T/C (dose: 267.0 mg/kg/injection, schedule: Q01DX001 (ip), vehicle: saline) was 127 % of control; the T/C (dose: 300.0 mg/kg/injection, schedule: Q01DX001 (ip), vehicle: saline) was 126 % of control. For the same compound, the T/C (dose: 600.0 mg/kg/injection, schedule: Q01DX001 (ip), vehicle: saline) is 145 % of control. Moreover, the survivor count under setting [7] is on record as 6 of 6.

As to `OCCC(c1ccccc1)(c1ccccc1)c1ccccc1`, the survivor count reads like this: (dose: 50.0 mg/kg/injection, schedule: Q04DX003 (ip), vehicle: saline with Tween-80) 6 of 6; under setting [9], 3 of 6; under setting [10], 3 of 6; (dose: 400.0 mg/kg/injection, schedule: Q04DX003 (ip), vehicle: saline with Tween-80) 0 of 6.

`O=[N+]([O-])c1ccc(/C=N/O)s1`: the survivor count is 0 of 6 (dose: 100.0 mg/kg/injection, schedule: Q01DX009 (ip), vehicle: saline with Tween-80); 0 of 3 and 1 of 3 under setting [4]; 0 of 6 (dose: 200.0 mg/kg/injection, schedule: Q01DX009 (ip), vehicle: saline with Tween-80); 1 of 3 under setting [5]; 0 of 6 (dose: 400.0 mg/kg/injection, schedule: Q01DX009 (ip), vehicle: saline with Tween-80); 0 of 3 under setting [6].

With `CCOP1(=O)OCC(C(C)(C)C)CO1` (stereo unspecified), the survivor count is 0 of 6 (dose: 100.0 mg/kg/injection, schedule: Q04DX003 (ip), vehicle: carboxymethylcellulose (CMC)); 0 of 6 (dose: 200.0 mg/kg/injection, schedule: Q04DX003 (ip), vehicle: carboxymethylcellulose (CMC)); 0 of 6 (dose: 400.0 mg/kg/injection, schedule: Q04DX003 (ip), vehicle: carboxymethylcellulose (CMC)).

Take `O=S(=O)(c1ccc(Cl)cc1)C(F)F`: the survivor count by setting is: (dose: 100.0 mg/kg/injection, schedule: Q04DX003 (ip), vehicle: Klucel (hydroxypropylcellulose) (HPC)) 6 of 6; (dose: 200.0 mg/kg/injection, schedule: Q04DX003 (ip), vehicle: Klucel (hydroxypropylcellulose) (HPC)) 3 of 6; under setting [3], 0 of 6.

For `Cc1ccc(NC(C(=O)O)c2ccccc2)cc1` (stereo unspecified), the survivor count (dose: 400.0 mg/kg/injection, schedule: Q04DX002 (ip), vehicle: Klucel (hydroxypropylcellulose) (HPC)) is on record as 1 of 3.

Turning to `O=C(CCl)c1ccc([N+](=O)[O-])o1`, the survivor count is, setting by setting: (dose: 6.25 mg/kg/injection, schedule: Q01DX001 (ip), vehicle: Klucel (hydroxypropylcellulose) (HPC)) 3 of 6; (dose: 12.5 mg/kg/injection, schedule: Q01DX001 (ip), vehicle: Klucel (hydroxypropylcellulose) (HPC)) 0 of 6; (dose: 25.0 mg/kg/injection, schedule: Q01DX001 (ip), vehicle: Klucel (hydroxypropylcellulose) (HPC)) 0 of 6 and 1 of 6; (dose: 50.0 mg/kg/injection, schedule: Q01DX001 (ip), vehicle: Klucel (hydroxypropylcellulose) (HPC)) 0 of 6; (dose: 100.0 mg/kg/injection, schedule: Q01DX001 (ip), vehicle: Klucel (hydroxypropylcellulose) (HPC)) 0 of 6; (dose: 200.0 mg/kg/injection, schedule: Q01DX001 (ip), vehicle: Klucel (hydroxypropylcellulose) (HPC)) 0 of 6. For the setting “dose: 400.0 mg/kg/injection, schedule: Q01DX001 (ip), vehicle: Klucel (hydroxypropylcellulose) (HPC)”, the survivor count is 0 of 6.

Turning to `CCCCCCCC(=O)N1CCOCC1`, the survivor count under setting [9] was 6 of 6 and the survivor count under setting [10] is 0 of 6.

As to `CC(=O)C(CCC#N)(CCC#N)c1ccccc1`, for the setting “dose: 200.0 mg/kg/injection, schedule: Q04DX002 (ip), vehicle: Klucel (hydroxypropylcellulose) (HPC)”, the survivor count was 3 of 3.

Consider `CN(Cc1cnc2nc(N)nc(N)c2n1)c1ccc(C(=O)NC(CCC(=O)O)C(=O)O)c(Cl)c1Cl` (stereo unspecified), for which the T/C (dose: 6.25 mg/kg/injection, schedule: Q01DX009 (ip), vehicle: sodium bicarbonate) was 125 % of control.

Regarding `Nc1nc(Nc2ccc(Cl)c(Cl)c2)cc(=O)[nH]1`, the survivor count (dose: 100.0 mg/kg/injection, schedule: Q01DX Z (ip), vehicle: methylcellulose (MC)) was 5 of 6.

As for `OCC1OC(n2ccc3c([Se]Cc4ccccc4)ncnc32)C(O)C1O` (stereo unspecified), the survivor count was 6 of 6 (dose: 12.5 mg/kg/injection, schedule: Q01DX009 (ip), vehicle: saline); 2 of 6 (dose: 25.0 mg/kg/injection, schedule: Q01DX009 (ip), vehicle: saline); 2 of 6 (dose: 50.0 mg/kg/injection, schedule: Q01DX005 (ip), vehicle: saline); 0 of 6 (dose: 100.0 mg/kg/injection, schedule: Q01DX005 (ip), vehicle: saline); 0 of 6 (dose: 200.0 mg/kg/injection, schedule: Q01DX005 (ip), vehicle: saline).

`CC(C)=CC=O`: the survivor count (dose: 400.0 mg/kg/injection, schedule: Q01DX009 (ip), vehicle: saline sonified) was 3 of 6.
